# Measured values from article PMC10628465.
# Amino acid sequences for entries named in this document (tags omitted). Residues count along the entry.
# UniProt P07355: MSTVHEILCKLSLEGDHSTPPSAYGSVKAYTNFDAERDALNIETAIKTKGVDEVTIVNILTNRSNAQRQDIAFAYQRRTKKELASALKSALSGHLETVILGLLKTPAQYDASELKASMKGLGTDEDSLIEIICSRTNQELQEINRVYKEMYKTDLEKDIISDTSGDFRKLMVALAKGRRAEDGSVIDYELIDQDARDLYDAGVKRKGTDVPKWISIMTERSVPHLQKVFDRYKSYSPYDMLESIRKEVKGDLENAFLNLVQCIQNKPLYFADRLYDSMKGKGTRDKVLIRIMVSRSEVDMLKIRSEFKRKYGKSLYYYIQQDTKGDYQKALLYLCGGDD
# UniProt Q04695: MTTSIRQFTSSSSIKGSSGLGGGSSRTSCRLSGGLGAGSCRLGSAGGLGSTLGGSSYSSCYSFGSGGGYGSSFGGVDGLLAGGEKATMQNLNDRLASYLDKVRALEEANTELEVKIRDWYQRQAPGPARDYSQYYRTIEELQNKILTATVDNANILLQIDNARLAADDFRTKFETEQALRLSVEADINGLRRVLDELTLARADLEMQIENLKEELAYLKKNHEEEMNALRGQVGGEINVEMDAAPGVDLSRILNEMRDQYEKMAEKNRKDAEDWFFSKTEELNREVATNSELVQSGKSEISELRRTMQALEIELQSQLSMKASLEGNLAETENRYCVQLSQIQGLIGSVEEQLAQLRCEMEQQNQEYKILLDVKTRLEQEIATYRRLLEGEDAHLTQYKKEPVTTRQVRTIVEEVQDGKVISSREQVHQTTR
# UniProt P11142: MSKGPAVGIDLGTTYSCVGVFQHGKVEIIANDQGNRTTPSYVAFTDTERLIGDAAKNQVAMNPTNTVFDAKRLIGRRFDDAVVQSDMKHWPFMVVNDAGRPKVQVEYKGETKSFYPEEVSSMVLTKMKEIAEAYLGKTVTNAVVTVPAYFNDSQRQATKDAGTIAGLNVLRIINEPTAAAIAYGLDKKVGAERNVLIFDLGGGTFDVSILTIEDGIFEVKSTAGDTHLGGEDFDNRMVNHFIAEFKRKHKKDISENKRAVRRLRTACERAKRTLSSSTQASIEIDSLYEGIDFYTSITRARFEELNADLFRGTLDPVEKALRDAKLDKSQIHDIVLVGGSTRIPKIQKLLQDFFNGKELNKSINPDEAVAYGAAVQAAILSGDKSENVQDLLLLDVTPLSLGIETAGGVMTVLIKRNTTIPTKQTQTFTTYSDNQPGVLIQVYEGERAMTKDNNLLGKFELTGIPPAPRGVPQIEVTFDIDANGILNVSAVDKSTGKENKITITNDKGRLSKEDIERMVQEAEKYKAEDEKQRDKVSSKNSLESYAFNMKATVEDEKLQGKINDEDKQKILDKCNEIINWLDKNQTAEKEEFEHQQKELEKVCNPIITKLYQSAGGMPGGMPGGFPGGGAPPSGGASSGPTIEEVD
# UniProt P07996, residues 19-1170: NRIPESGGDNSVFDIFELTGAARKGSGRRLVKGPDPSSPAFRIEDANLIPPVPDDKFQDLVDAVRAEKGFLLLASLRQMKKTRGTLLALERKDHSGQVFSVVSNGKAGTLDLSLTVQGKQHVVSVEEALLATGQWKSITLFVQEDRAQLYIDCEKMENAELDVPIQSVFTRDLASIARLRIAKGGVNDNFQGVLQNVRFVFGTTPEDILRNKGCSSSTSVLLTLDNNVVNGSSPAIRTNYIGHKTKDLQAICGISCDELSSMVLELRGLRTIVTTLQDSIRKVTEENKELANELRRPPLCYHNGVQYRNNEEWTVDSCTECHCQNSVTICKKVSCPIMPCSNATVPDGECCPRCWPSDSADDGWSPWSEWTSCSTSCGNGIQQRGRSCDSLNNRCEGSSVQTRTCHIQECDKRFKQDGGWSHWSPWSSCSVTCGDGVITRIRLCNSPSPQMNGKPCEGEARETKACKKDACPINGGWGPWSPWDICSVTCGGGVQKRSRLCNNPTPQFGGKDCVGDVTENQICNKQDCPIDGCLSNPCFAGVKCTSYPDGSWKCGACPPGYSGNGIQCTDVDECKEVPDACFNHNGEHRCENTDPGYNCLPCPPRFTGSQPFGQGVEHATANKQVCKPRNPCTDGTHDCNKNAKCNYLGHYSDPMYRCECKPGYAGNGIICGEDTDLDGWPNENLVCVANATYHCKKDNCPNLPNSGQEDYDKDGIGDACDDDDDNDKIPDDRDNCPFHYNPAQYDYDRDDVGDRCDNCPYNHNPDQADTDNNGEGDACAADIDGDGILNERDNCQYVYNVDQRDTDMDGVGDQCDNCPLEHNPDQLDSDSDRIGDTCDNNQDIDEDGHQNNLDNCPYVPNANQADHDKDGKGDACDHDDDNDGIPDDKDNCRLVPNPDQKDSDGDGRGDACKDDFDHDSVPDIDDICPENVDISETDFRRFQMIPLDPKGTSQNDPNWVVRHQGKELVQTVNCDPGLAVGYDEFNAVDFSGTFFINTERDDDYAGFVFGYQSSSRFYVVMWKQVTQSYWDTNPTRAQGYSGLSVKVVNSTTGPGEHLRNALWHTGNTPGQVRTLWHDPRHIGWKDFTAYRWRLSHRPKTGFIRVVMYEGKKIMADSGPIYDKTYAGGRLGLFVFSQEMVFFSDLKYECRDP
# UniProt Q9UDY2: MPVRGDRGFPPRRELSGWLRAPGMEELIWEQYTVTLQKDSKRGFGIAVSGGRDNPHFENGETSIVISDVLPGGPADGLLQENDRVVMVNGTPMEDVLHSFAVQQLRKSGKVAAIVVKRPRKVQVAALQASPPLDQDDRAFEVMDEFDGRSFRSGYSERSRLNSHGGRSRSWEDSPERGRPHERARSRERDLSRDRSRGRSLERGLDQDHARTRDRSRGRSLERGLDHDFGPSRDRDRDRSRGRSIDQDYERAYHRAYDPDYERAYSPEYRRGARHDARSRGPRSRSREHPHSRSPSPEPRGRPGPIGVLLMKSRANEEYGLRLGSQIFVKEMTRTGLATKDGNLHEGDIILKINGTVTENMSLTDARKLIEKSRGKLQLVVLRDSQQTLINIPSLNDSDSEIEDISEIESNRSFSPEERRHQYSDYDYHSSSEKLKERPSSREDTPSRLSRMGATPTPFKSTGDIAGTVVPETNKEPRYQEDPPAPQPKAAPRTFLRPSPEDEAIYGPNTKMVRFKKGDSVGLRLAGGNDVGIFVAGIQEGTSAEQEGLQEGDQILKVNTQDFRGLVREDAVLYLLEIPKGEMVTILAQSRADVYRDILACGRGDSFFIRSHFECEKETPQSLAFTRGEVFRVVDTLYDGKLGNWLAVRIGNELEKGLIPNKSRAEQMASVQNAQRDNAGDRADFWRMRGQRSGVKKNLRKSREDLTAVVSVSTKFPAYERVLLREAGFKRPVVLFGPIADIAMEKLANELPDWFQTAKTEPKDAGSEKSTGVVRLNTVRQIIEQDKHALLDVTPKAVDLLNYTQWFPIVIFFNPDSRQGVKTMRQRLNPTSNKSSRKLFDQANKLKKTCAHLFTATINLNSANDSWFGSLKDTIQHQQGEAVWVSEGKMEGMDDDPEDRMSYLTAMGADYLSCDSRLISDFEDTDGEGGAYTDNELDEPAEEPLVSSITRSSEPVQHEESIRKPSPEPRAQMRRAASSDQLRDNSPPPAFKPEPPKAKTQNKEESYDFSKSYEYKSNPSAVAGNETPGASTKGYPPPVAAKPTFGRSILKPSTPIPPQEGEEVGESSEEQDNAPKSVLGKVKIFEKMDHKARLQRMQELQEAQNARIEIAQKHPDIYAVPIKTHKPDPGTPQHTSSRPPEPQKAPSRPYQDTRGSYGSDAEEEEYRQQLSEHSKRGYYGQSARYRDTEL
# UniProt P02751, residues 32-2477: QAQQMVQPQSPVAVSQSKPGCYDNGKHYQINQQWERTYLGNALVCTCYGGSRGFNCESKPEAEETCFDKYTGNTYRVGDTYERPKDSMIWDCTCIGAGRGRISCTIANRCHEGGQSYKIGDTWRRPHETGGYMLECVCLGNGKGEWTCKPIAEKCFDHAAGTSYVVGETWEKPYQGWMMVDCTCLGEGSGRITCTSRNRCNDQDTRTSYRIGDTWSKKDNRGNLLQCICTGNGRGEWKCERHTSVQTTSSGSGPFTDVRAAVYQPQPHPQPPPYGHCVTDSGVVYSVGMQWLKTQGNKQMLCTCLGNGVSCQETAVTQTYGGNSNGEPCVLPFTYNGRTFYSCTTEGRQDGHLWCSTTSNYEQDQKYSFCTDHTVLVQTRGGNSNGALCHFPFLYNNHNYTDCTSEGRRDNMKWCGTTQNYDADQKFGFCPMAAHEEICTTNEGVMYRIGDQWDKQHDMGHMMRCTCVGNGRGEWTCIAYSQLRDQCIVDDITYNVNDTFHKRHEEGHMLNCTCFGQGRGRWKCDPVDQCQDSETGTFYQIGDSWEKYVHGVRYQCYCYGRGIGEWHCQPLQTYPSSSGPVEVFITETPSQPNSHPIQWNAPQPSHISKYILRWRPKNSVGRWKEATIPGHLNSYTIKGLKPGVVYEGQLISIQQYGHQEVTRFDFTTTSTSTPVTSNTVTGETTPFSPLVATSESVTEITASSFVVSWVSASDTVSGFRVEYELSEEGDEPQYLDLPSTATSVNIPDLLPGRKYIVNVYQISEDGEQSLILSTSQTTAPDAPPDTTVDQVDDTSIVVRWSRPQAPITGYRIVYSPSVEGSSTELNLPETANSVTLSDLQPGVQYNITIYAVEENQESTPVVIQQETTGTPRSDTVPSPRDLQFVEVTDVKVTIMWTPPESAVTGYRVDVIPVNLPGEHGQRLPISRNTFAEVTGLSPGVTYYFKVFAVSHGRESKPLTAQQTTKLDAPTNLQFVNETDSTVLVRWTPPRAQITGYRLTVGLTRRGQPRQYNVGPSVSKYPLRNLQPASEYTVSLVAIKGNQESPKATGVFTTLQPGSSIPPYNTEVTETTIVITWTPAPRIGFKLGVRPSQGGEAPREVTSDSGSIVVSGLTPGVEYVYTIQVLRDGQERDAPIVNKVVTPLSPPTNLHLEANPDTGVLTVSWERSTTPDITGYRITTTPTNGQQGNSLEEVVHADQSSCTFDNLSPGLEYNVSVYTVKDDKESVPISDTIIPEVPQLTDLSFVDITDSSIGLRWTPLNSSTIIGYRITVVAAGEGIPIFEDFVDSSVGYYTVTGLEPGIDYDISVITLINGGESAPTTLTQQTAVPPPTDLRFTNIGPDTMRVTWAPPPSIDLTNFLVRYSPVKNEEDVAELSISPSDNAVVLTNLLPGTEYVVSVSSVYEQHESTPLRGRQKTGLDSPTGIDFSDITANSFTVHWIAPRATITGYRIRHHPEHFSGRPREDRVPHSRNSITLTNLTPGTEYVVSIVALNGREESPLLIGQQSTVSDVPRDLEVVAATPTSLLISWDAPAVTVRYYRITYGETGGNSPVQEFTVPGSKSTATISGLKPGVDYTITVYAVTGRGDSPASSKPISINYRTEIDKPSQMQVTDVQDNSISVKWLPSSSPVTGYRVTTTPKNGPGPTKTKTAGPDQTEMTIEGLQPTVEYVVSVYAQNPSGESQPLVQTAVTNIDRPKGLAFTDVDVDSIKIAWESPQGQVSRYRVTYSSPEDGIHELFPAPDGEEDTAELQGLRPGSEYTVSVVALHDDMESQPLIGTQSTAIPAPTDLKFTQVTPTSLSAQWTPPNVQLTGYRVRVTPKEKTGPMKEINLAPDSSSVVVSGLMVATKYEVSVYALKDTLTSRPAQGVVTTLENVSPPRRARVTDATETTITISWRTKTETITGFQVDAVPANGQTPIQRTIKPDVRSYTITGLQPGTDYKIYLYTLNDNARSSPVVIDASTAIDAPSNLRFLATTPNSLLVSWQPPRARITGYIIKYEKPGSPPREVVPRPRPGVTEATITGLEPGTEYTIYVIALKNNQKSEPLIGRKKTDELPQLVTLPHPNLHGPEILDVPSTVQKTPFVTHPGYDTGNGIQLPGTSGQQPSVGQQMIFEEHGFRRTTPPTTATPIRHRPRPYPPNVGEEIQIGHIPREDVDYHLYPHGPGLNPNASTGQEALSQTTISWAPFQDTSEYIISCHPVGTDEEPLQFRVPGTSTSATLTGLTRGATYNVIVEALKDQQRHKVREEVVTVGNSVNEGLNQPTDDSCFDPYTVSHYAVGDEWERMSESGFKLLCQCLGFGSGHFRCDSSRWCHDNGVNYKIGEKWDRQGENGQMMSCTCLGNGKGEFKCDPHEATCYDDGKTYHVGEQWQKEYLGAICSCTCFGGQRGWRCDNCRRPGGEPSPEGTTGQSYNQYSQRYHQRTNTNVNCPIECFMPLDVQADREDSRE
# No constants are given. Whether binding was seen depends on the method and setting. In cells and extracts the contact can be indirect. A yes stands for co-enrichment or nearness to the bait. Other partners may have been found. For some of these results: No binding means not detected with the bait.
# B1: Ataxin-2-like protein (protein, UniProt Q8WWM7 1-1075)
# chain: MLKPQPLQQPSQPQQPPPTQQAVARRPPGGTSPPNGGLPGPLATSAAPPGPPAAASPCLGPVAAAGSGLRRGAEGILAPQPPPPQQHQERPGAAAIGSARGQSTGKGPPQSPVFEGVYNNSRMLHFLTAVVGSTCDVKVKNGTTYEGIFKTLSSKFELAVDAVHRKASEPAGGPRREDIVDTMVFKPSDVMLVHFRNVDFNYATKDKFTDSAIAMNSKVNGEHKEKVLQRWEGGDSNSDDYDLESDMSNGWDPNEMFKFNEENYGVKTTYDSSLSSYTVPLEKDNSEEFRQRELRAAQLAREIESSPQYRLRIAMENDDGRTEEEKHSAVQRQGSGRESPSLASREGKYIPLPQRVREGPRGGVRCSSSRGGRPGLSSLPPRGPHHLDNSSPGPGSEARGINGGPSRMSPKAQRPLRGAKTLSSPSNRPSGETSVPPPPAVGRMYPPRSPKSAAPAPISASCPEPPIGSAVPTSSASIPVTSSVSDPGVGSISPASPKISLAPTDVKELSTKEPGRTLEPQELARIAGKVPGLQNEQKRFQLEELRKFGAQFKLQPSSSPENSLDPFPPRILKEEPKGKEKEVDGLLTSEPMGSPVSSKTESVSDKEDKPPLAPSGGTEGPEQPPPPCPSQTGSPPVGLIKGEDKDEGPVAEQVKKSTLNPNAKEFNPTKPLLSVNKSTSTPTSPGPRTHSTPSIPVLTAGQSGLYSPQYISYIPQIHMGPAVQAPQMYPYPVSNSVPGQQGKYRGAKGSLPPQRSDQHQPASAPPMMQAAAAAGPPLVAATPYSSYIPYNPQQFPGQPAMMQPMAHYPSQPVFAPMLQSNPRMLTSGSHPQAIVSSSTPQYPSAEQPTPQALYATVHQSYPHHATQLHAHQPQPATTPTGSQPQSQHAAPSPVQHQAGQAPHLGSGQPQQNLYHPGALTGTPPSLPPGPSAQSPQSSFPQPAAVYAIHHQQLPHGFTNMAHVTQAHVQTGITAAPPPHPGAPHPPQVMLLHPPQSHGGPPQGAVPQSGVPALSASTPSPYPYIGHPQGEQPGQAPGFPGGADDRIREFSLAGGIWHGRAEGLQVGQDARVLGGE
# B2: DExH-Box Helicase 29 (protein, UniProt Q7Z478 1-1369)
# chain: MGGKNKKHKAPAAAVVRAAVSASRAKSAEAGIAGEAQSKKPVSRPATAAAAAAGSREPRVKQGPKIYSFNSTNDSSGPANLDKSILKVVINNKLEQRIIGVINEHKKQNNDKGMISGRLTAKKLQDLYMALQAFSFKTKDIEDAMTNTLLYGGDLHSALDWLCLNLSDDALPEGFSQEFEEQQPKSRPKFQSPQIQATISPPLQPKTKTYEEDPKSKPKKEEKNMEVNMKEWILRYAEQQNEEEKNENSKSLEEEEKFDPNERYLHLAAKLLDAKEQAATFKLEKNKQGQKEAQEKIRKFQREMETLEDHPVFNPAMKISHQQNERKKPPVATEGESALNFNLFEKSAAATEEEKDKKKEPHDVRNFDYTARSWTGKSPKQFLIDWVRKNLPKSPNPSFEKVPVGRYWKCRVRVIKSEDDVLVVCPTILTEDGMQAQHLGATLALYRLVKGQSVHQLLPPTYRDVWLEWSDAEKKREELNKMETNKPRDLFIAKLLNKLKQQQQQQQQHSENKRENSEDPEESWENLVSDEDFSALSLESANVEDLEPVRNLFRKLQSTPKYQKLLKERQQLPVFKHRDSIVETLKRHRVVVVAGETGSGKSTQVPHFLLEDLLLNEWEASKCNIVCTQPRRISAVSLANRVCDELGCENGPGGRNSLCGYQIRMESRACESTRLLYCTTGVLLRKLQEDGLLSNVSHVIVDEVHERSVQSDFLLIILKEILQKRSDLHLILMSATVDSEKFSTYFTHCPILRISGRSYPVEVFHLEDIIEETGFVLEKDSEYCQKFLEEEEEVTINVTSKAGGIKKYQEYIPVQTGAHADLNPFYQKYSSRTQHAILYMNPHKINLDLILELLAYLDKSPQFRNIEGAVLIFLPGLAHIQQLYDLLSNDRRFYSERYKVIALHSILSTQDQAAAFTLPPPGVRKIVLATNIAETGITIPDVVFVIDTGRTKENKYHESSQMSSLVETFVSKASALQRQGRAGRVRDGFCFRMYTRERFEGFMDYSVPEILRVPLEELCLHIMKCNLGSPEDFLSKALDPPQLQVISNAMNLLRKIGACELNEPKLTPLGQHLAALPVNVKIGKMLIFGAIFGCLDPVATLAAVMTEKSPFTTPIGRKDEADLAKSALAMADSDHLTIYNAYLGWKKARQEGGYRSEITYCRRNFLNRTSLLTLEDVKQELIKLVKAAGFSSSTTSTSWEGNRASQTLSFQEIALLKAVLVAGLYDNVGKIIYTKSVDVTEKLACIVETAQGKAQVHPSSVNRDLQTHGWLLYQEKIRYARVYLRETTLITPFPVLLFGGDIEVQHRERLLSIDGWIYFQAPVKIAVIFKQLRVLIDSVLRKKLENPKMSLENDKILQIITELIKTENN
# Biological target: Annexin A2 (human (endogenous in MDA-MB-231)) (UniProt P07355)
# Assay: condition: only cells plated on uncoated plastic, without collagen-I; affinity purification with mass spectrometry; as a1, only the sample from cells grown on uncoated plates (no collagen-I)
row,binding,Molecule
1,no binding,Keratin 17 (from UniProt Q04695 1-432)

# Biological target: Annexin A2 (human (endogenous in MDA-MB-231)) (UniProt P07355)
# Assay: affinity purification with mass spectrometry; anti-Annexin A2 antibody (ab41803) and protein G agarose beads in pre-cleared MDA-MB-231 lysate overnight at 4°C; cells grown on uncoated or collagen-I-coated plates; proteins of the no-antibody blank subtracted; cut-off of 4 or more peptide matches
row,binding,Molecule
1,binds,Cytoskeleton-associated protein 5 (from UniProt Q14008 1-2032)
2,binds,Desmoplakin (from UniProt P15924 1-2871)
3,binds,Heat Shock Protein Family A (Hsp70) Member 8 (from UniProt P11142 1-646)
4,binds,Keratin 17 (from UniProt Q04695 1-432)
5,binds,Thrombospondin-1 (from UniProt P07996 19-1170)
6,binds,Tight junction protein ZO-2 (from UniProt Q9UDY2 1-1190)
7,binds,fibronectin (from UniProt P02751 32-2477)
8,binds,B1
9,binds,B2
